The target of the assay is TssB-His (pET22b-TssB-His) (Agrobacterium tumefaciens C58) (UniProt A9CGG6). In words: pull-down; co-purification: pairs co-expressed in E. coli BL21(DE3), IPTG 0.5 mM at 25°C; soluble extract loaded on Ni-NTA column, His-tagged protein as bait; wash 50 mM NaH2PO4, 0.3 M NaCl, 25 mM imidazole, pH 8.0; elution 400 mM imidazole; western blot.

Amino acid sequences for entries named in this document (tags omitted). A change or cut given only in a name is not applied to a line headed by its entry.
UniProt A9CGG6: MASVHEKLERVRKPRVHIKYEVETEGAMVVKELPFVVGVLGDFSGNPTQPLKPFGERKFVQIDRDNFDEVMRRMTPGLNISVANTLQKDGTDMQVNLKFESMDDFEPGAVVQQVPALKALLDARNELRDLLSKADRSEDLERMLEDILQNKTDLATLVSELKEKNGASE
UniProt A9CGG5: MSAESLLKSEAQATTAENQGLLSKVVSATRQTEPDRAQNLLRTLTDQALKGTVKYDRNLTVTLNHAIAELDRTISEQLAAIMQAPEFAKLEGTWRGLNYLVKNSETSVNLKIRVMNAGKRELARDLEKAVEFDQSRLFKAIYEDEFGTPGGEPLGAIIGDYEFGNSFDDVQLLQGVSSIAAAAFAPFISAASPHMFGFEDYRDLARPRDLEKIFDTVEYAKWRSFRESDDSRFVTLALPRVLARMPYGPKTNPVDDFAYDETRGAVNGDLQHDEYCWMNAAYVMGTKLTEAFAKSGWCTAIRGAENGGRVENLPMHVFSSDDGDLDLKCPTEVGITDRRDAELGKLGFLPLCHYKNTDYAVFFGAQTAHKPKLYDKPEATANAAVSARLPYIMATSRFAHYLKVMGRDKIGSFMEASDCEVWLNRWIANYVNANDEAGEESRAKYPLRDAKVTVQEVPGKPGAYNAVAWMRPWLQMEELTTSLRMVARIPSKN

These are yes or no findings as the source states them, for the method shown. Binding seen in cells or lysates may run through a third protein. Binding calls can cover weak binding; strength is not graded here.

“TssC41 (Atu4341), expressed without any fusion from pTrc-TssC41 (from UniProt A9CGG5)”: the binding result is given as “binds”.
